According to paper PMC11599018:
Results are given in words; binding and its absence hold for the method and conditions named.

Amino acid sequences for entries named in this document (tags omitted). Residues count along the entry.
UniProt P02769, residues 25-607: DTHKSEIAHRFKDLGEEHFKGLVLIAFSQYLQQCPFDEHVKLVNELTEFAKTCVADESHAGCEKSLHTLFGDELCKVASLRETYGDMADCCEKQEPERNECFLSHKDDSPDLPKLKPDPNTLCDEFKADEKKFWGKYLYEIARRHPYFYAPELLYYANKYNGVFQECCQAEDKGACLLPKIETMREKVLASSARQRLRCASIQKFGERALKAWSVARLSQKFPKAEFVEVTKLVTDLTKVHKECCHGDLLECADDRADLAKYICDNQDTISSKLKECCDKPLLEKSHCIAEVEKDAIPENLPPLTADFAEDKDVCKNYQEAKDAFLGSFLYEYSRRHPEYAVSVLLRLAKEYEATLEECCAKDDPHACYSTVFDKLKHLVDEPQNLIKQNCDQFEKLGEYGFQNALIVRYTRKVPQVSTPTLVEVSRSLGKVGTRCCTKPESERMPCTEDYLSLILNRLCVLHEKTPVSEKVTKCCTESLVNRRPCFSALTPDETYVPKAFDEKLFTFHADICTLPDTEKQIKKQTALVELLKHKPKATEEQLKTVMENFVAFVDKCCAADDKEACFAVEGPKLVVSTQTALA
UniProt P30530, residues 26-449: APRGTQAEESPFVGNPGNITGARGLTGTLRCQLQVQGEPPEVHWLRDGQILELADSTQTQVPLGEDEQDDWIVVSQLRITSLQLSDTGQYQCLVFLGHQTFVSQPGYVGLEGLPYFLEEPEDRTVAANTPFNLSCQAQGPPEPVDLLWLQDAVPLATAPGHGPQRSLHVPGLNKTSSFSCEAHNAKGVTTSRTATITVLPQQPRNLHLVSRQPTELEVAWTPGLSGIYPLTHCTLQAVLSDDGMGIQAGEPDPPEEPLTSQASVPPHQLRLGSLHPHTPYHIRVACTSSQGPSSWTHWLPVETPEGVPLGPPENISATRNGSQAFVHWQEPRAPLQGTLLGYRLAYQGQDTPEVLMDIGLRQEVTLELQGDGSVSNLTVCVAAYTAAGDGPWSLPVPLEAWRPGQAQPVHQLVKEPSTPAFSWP

Molecular target: bovine serum albumin (bovine) (UniProt P02769)
Assay: AFM single molecule force spectro; both purified

binding: no binding
Substance: Human Axl (from UniProt P30530 26-449) (receptor)
